## Library screening results

Sequences of proteins named here, by UniProt entry; tags and fusion partners are left off.
UniProt E9BF75, entry or part of it: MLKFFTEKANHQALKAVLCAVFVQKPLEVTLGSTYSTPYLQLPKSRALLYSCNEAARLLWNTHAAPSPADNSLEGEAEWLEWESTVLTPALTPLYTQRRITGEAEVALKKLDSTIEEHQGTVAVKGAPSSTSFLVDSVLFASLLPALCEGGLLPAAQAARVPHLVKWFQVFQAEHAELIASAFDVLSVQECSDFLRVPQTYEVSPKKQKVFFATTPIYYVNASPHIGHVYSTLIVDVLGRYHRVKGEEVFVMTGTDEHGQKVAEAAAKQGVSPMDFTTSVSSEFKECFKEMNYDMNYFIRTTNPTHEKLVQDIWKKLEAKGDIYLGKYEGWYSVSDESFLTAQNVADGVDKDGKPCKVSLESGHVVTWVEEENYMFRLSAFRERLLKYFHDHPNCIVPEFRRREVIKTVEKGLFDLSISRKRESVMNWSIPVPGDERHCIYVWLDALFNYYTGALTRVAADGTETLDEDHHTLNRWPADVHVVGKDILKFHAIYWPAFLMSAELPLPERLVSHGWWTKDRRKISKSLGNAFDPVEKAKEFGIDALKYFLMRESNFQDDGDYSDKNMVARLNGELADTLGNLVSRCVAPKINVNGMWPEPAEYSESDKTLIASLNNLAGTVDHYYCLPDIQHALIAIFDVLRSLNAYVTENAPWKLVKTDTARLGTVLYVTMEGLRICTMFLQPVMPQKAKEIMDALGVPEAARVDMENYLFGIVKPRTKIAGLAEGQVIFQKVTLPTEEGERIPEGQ

From ChEMBL document CHEMBL3988442, “University of Dundee, Small-Polar-MMV Screening Library” (2021).

All values are in %.
How 0% and 100% were set is not recorded. Most values in the screen are low, and negative values occur.
Compounds were drawn at random from those tested, without regard to their results.

LdMetRS: 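Primary screen of methionyl-tRNA synthetase; the read-out is not stated. Target: Methionyl-tRNA synthetase (putative), Leishmania donovani (UniProt E9BF75). The test concentration is not given. Values are per cent inhibition. Size under these conditions: about 68,000 compounds, about 24 of them at 50% or above in at least one test.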
Mtb heat-shock: 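Assay on Mycobacterium tuberculosis, filed only as a heat shock assay from Cornell; the read-out is not stated. The concentration is filed as 10 mM, unlikely as a test dose, so the dose is not known. Direction is inferred from retests: higher values go with stronger inhibition. Of about 69,000 compounds tested this way, about 930 (1.4%) reached 50% or more in at least one test.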

* CCN(CC)c1ncccc1CNC(=O)c1cnn(CC)c1 : LdMetRS: 11.87%; Mtb heat-shock: -0.831%
* Cc1ccnc(N2C[C@@H]3CC[C@H](C2)N(CC2CCC2)C3=O)n1 : LdMetRS: 9.639%
* CN(C)CCN1CC[C@@H]2[C@@H]1CCN2C(=O)c1cccc(Cl)c1 : LdMetRS: 19.78%
* CC(=O)NCCOc1c(Cl)cccc1Cl : LdMetRS: -3.867%; Mtb heat-shock: -9.054%
* CCOc1ccnc(N2CCN(Cc3ncccc3C)CC2)n1 : LdMetRS: 2.857%; Mtb heat-shock: 17.62%
* Cc1nc(C)n(CC2CCCN(CCC(=O)N3CCOCC3)C2)n1 (stereo not given) : LdMetRS: 23.2%; Mtb heat-shock: 15.17%
* Cc1nsc(NC(=O)N2CCC(C(C)(C)O)CC2)n1 : LdMetRS: 8.55%; Mtb heat-shock: -2.701%
* CCC(=O)N1CCCC(c2nc(N(C)C)ncc2-c2ccc(F)cc2)C1 (stereo not given) : LdMetRS: 21.27%; Mtb heat-shock: 25.39%
* CCNC(=O)c1ccc2c(c1)nc1n2CCN(Cc2ccco2)C1 : LdMetRS: 9.155%; Mtb heat-shock: 6.809%
* CCS(=O)(=O)N1CCC2(CCC(N3CCCC3)c3ccccc32)CC1.O=C(O)C(F)(F)F (stereo not given) : Mtb heat-shock: 6.947%
* COc1ccccc1CN1C(=O)O[C@@H]2CN(c3nc(C)cc(C)n3)C[C@@H]21 : LdMetRS: 12.73%
* O=C(O)C(F)(F)F.[H][C@@]12CN(c3nnc(C)s3)C[C@H](C(=O)NCC3CC3)[C@]1([H])CCO2 : Mtb heat-shock: -14.89%
* CC(C)(C)c1noc(CNc2ccccc2N2CCC(O)CC2)n1 : LdMetRS: 24.13%; Mtb heat-shock: 17.89%
* Cc1cccc(CN2CCO[C@@H]3CC(COc4ccccn4)C[C@H]32)n1 (stereo not given in full) : LdMetRS: 2.186%
* Cc1ccc(C(=O)N2CCN(Cc3ccsc3)CC2)n1C : LdMetRS: 16.78%; Mtb heat-shock: 20.02%
* O=C(O)C(F)(F)F.O=C(O)C(F)(F)F.[H][C@@]12C[C@@H](C(=O)NC)N(C(C)C)[C@]1([H])CN(Cc1csc(C)n1)C2 : Mtb heat-shock: 6.406%
* COCCCNC(=O)c1cn(C(C)C)cc2c(=O)[nH]nc1-2 : LdMetRS: 19.24%; Mtb heat-shock: 1.32%
* CCOC(=O)C1(Cc2cccc(OC)c2)CCN(Cc2ccon2)CC1 : LdMetRS: 7.035%; Mtb heat-shock: 11.82%
* O=C(Nc1ccccc1)c1n[nH]c(-n2cnnc2)n1 : LdMetRS: 18.84%; Mtb heat-shock: -1.917%
* CN1CC(C(=O)NCCc2ccn(-c3ccc(F)cc3)n2)CC1=O (stereo not given) : LdMetRS: 17.06%; Mtb heat-shock: 10.4%
* CCc1c(C)nc(-n2nc(C3CC3)cc2NC(C)=O)[nH]c1=O : LdMetRS: 16.82%; Mtb heat-shock: -4.817%
* CC(C)CCN1CCN(C(=O)c2c[nH]c(=O)[nH]2)CC1 : LdMetRS: 10.15%; Mtb heat-shock: -10.54%
* COc1ccc(C(=O)NC(CC(=O)O)c2cccs2)c(OC)c1 (stereo not given) : LdMetRS: 15.76%; Mtb heat-shock: -3.893%
* Cc1nc(C)c(CC(=O)N2C[C@@H]3CC[C@H](C2)N(CC2CCC2)C3)c(=O)[nH]1 : LdMetRS: 11.52%
* Cc1cc2n(n1)CC(CNC1CCN(CCc3ccccc3)CC1)CN2 (stereo not given) : LdMetRS: 2.847%; Mtb heat-shock: 6.378%
* COCCC(=O)NCCCOC1CCCc2ccccc21 (stereo not given) : LdMetRS: 2.899%; Mtb heat-shock: 10.54%
* COCCNC(=O)[C@]12COC[C@H]1CN(C1CCOCC1)C2 : LdMetRS: 0%
* CCCS(=O)(=O)N1CCC2(CN(c3ccccc3)C(=O)CN2C)C1.O=C(O)C(F)(F)F (stereo not given) : Mtb heat-shock: -15.92%
* CC1c2ncc(Cn3cncn3)n2CCN1CC1CCOCC1 (stereo not given) : LdMetRS: 7.397%
* c1cnc(N2CCOCC3(CCCN(c4nncs4)C3)C2)cn1 (stereo not given) : LdMetRS: 1.307%; Mtb heat-shock: 2.419%
* CCCS(=O)(=O)N1CCC2(CN(c3cnn(C)c3)C(=O)CN2C)C1.O=C(O)C(F)(F)F (stereo not given) : Mtb heat-shock: -11.09%
* O=C1CCNc2ncc(-c3ccc(Cl)cc3)cc2CN1C1CC1 : LdMetRS: 13.42%; Mtb heat-shock: 53.07%
* CCn1ccnc1S(=O)(=O)Cc1ccc(C(N)=O)cc1 : LdMetRS: 4.861%; Mtb heat-shock: -7.849%
* CC(=O)N1CCN(Cc2c(C)sc3ccccc23)CC(O)C1 (stereo not given) : LdMetRS: 10.31%; Mtb heat-shock: -2.524%